In article PMC5386674:
Results are given in words; binding and its absence hold for the method and conditions named. For some of these results: Binding seen in cells or lysates may run through a third protein. Some binding calls cover weakened binding; strength is not graded here. For some of these results: Sequences can lack the tags named with a protein.

Sequences of proteins named here, by UniProt entry; tags and fusion partners are left off. Residues count along the entry.
UniProt P97471, residues 1-391: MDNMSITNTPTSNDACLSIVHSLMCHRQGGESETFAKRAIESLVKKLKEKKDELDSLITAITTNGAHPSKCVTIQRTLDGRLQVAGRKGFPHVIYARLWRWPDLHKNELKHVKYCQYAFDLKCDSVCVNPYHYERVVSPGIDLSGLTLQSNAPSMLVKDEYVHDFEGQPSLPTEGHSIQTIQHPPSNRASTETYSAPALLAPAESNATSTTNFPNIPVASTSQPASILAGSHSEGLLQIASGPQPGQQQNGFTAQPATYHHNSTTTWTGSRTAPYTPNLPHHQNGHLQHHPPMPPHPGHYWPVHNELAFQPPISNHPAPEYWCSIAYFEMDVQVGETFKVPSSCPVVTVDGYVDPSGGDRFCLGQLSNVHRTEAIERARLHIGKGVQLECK

Columns and labels:
[1] = biological target: T1, WWOX (WW domain-containing oxidoreductase), endogenous human (human (endogenous in THP-1, U937, SK-N-SH, Jurkat, MCF7)) (UniProt Q9NZC7); experiment: co-IP; immunoprecipitation with WWOX antibody from cytosolic and nuclear fractions of THP-1, U937, Jurkat T and L929R cells, resting or treated with HA (25 μg/ml) for 30 min
T1 sequence: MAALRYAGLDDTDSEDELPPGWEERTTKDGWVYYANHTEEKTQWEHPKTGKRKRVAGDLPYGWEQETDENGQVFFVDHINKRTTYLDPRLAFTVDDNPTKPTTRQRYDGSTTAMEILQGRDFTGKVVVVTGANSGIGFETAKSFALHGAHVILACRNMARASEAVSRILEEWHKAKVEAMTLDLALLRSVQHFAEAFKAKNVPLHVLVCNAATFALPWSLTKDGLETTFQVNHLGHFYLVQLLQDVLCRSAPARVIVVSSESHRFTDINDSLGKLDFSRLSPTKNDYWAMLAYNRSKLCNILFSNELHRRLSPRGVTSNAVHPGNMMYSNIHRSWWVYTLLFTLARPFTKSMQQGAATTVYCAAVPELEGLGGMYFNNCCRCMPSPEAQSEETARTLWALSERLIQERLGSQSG

[2] = biological target: T1, WWOX (WW domain-containing oxidoreductase), endogenous human (human (endogenous in THP-1, U937, SK-N-SH, Jurkat, MCF7)); experiment: co-IP; data not shown; THP-1, U937 and TNF-sensitive L929 cells, as for Figure 4F (WWOX antibody, HA 30 min)
[3] = biological target: T2, WWOX, endogenous murine (murine (endogenous in L929R, L929)) (UniProt Q91WL8); experiment: co-IP; immunoprecipitation with WWOX antibody from cytosolic and nuclear fractions of THP-1, U937, Jurkat T and L929R cells, resting or treated with HA (25 μg/ml) for 30 min
T2 sequence: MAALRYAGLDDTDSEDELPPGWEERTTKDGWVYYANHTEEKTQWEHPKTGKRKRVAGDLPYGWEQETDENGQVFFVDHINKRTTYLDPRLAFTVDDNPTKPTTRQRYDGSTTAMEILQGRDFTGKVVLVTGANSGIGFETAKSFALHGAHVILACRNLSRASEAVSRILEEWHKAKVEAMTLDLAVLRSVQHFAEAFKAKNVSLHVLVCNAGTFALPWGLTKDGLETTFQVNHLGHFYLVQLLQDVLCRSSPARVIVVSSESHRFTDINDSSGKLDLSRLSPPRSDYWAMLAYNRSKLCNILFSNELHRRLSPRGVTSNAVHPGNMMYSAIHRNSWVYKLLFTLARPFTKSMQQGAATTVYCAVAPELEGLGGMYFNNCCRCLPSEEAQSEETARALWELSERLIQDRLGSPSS

[4] = biological target: T2, WWOX, endogenous murine (murine (endogenous in L929R, L929)); experiment: co-IP; data not shown; THP-1, U937 and TNF-sensitive L929 cells, as for Figure 4F (WWOX antibody, HA 30 min)
[5] = biological target: murine Smad4 (truncated, 43 kDa), membrane-anchored target (pMyr) (murine) (UniProt P97471); experiment: two-hybrid; Ras rescue-based cytoplasmic yeast two-hybrid (CytoTrap, Stratagene); Sos-tagged bait in the cytoplasm, myristoylated target on the membrane; growth of cdc25H yeast at 37°C on selective galactose plates
[6] = biological target: T3, murine Hyal-2, membrane-anchored target (pMyr) (murine) (UniProt O35632); experiment: two-hybrid; competitive binding in the Ras rescue yeast two-hybrid: membrane-anchored Hyal-2 (target), constant amount of WWOX (bait), various amounts of Smad4 (competitor) in the cytoplasm; % colony growth at 37°C over 22°C
T3 sequence: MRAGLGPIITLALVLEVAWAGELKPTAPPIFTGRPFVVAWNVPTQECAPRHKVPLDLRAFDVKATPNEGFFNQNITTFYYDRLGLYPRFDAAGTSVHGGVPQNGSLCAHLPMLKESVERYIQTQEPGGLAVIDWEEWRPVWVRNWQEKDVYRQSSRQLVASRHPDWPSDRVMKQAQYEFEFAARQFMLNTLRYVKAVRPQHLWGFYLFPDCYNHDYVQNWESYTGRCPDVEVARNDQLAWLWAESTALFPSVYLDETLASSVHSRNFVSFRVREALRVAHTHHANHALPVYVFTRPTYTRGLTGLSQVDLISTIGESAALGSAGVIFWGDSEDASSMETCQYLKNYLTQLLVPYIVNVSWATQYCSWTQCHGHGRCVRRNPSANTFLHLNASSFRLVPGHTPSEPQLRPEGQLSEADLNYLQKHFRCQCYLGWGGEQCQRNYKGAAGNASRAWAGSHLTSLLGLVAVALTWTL

[7] = biological target: human p53, membrane-anchored target (pMyr) (human) (UniProt P04637); experiment: two-hybrid; Ras rescue-based cytoplasmic yeast two-hybrid (CytoTrap, Stratagene); Sos-tagged bait in the cytoplasm, myristoylated target on the membrane; growth of cdc25H yeast at 37°C on selective galactose plates
[8] = biological target: DsRed-monomer-p53 (not stated (human p53 cloned for the two-hybrid)) (UniProt P04637); experiment: FRET or BRET; time-lapse tri-molecular FRET microscopy in DU145 cells transiently expressing ECFP-, EGFP- and DsRed-monomer-tagged proteins, stimulated with HA (25 μg/ml); FRETc

B1: Hyal-2 (hyaluronidase 2), endogenous human (protein, UniProt Q12891 21-448)
chain: MELKPTAPPIFTGRPFVVAWDVPTQDCGPRLKVPLDLNAFDVQASPNEGFVNQNITIFYRDRLGLYPRFDSAGRSVHGGVPQNVSLWAHRKMLQKRVEHYIRTQESAGLAVIDWEDWRPVWVRNWQDKDVYRRLSRQLVASRHPDWPPDRIVKQAQYEFEFAAQQFMLETLRYVKAVRPRHLWGFYLFPDCYNHDYVQNWESYTGRCPDVEVARNDQLAWLWAESTALFPSVYLDETLASSRHGRNFVSFRVQEALRVARTHHANHALPVYVFTRPTYSRRLTGLSEMDLISTIGESAALGAAGVILWGDAGYTTSTETCQYLKDYLTRLLVPYVVNVSWATQYCSRAQCHGHGRCVRRNPSASTFLHLSTNSFRLVPGHAPGEPQLRPVGELSWADIDHLQTHFRCQCYLGWSGEQCQWDHRQAAGG
With B1 the binding [1] was “binds” and the binding [2] was “binds”.

B2: Hyal-2, endogenous murine (protein, UniProt O35632 21-448)
chain: GELKPTAPPIFTGRPFVVAWNVPTQECAPRHKVPLDLRAFDVKATPNEGFFNQNITTFYYDRLGLYPRFDAAGTSVHGGVPQNGSLCAHLPMLKESVERYIQTQEPGGLAVIDWEEWRPVWVRNWQEKDVYRQSSRQLVASRHPDWPSDRVMKQAQYEFEFAARQFMLNTLRYVKAVRPQHLWGFYLFPDCYNHDYVQNWESYTGRCPDVEVARNDQLAWLWAESTALFPSVYLDETLASSVHSRNFVSFRVREALRVAHTHHANHALPVYVFTRPTYTRGLTGLSQVDLISTIGESAALGSAGVIFWGDSEDASSMETCQYLKNYLTQLLVPYIVNVSWATQYCSWTQCHGHGRCVRRNPSANTFLHLNASSFRLVPGHTPSEPQLRPEGQLSEADLNYLQKHFRCQCYLGWGGEQCQRNYKGAAGN
For B2, the binding [3] was “binds” and the binding [4] was “binds”.

B3: WWOX(K28T/D29V), dominant negative murine WWOX, Sos-tagged bait (protein, UniProt Q91WL8 1-414)
chain: MAALRYAGLDDTDSEDELPPGWEERTTTVGWVYYANHTEEKTQWEHPKTGKRKRVAGDLPYGWEQETDENGQVFFVDHINKRTTYLDPRLAFTVDDNPTKPTTRQRYDGSTTAMEILQGRDFTGKVVLVTGANSGIGFETAKSFALHGAHVILACRNLSRASEAVSRILEEWHKAKVEAMTLDLAVLRSVQHFAEAFKAKNVSLHVLVCNAGTFALPWGLTKDGLETTFQVNHLGHFYLVQLLQDVLCRSSPARVIVVSSESHRFTDINDSSGKLDLSRLSPPRSDYWAMLAYNRSKLCNILFSNELHRRLSPRGVTSNAVHPGNMMYSAIHRNSWVYKLLFTLARPFTKSMQQGAATTVYCAVAPELEGLGGMYFNNCCRCLPSEEAQSEETARALWELSERLIQDRLGSPSS
B3 was tested, and the binding [5] was “binds”.

B4: murine WWOX, Sos-tagged bait (pSos) (protein, UniProt Q91WL8 1-414)
chain: MAALRYAGLDDTDSEDELPPGWEERTTKDGWVYYANHTEEKTQWEHPKTGKRKRVAGDLPYGWEQETDENGQVFFVDHINKRTTYLDPRLAFTVDDNPTKPTTRQRYDGSTTAMEILQGRDFTGKVVLVTGANSGIGFETAKSFALHGAHVILACRNLSRASEAVSRILEEWHKAKVEAMTLDLAVLRSVQHFAEAFKAKNVSLHVLVCNAGTFALPWGLTKDGLETTFQVNHLGHFYLVQLLQDVLCRSSPARVIVVSSESHRFTDINDSSGKLDLSRLSPPRSDYWAMLAYNRSKLCNILFSNELHRRLSPRGVTSNAVHPGNMMYSAIHRNSWVYKLLFTLARPFTKSMQQGAATTVYCAVAPELEGLGGMYFNNCCRCLPSEEAQSEETARALWELSERLIQDRLGSPSS
For B4, the binding [6] was “binds” and the binding [7] was “binds”.

B5: EGFP-WWOX (murine) (protein, UniProt Q91WL8 1-414)
chain: MAALRYAGLDDTDSEDELPPGWEERTTKDGWVYYANHTEEKTQWEHPKTGKRKRVAGDLPYGWEQETDENGQVFFVDHINKRTTYLDPRLAFTVDDNPTKPTTRQRYDGSTTAMEILQGRDFTGKVVLVTGANSGIGFETAKSFALHGAHVILACRNLSRASEAVSRILEEWHKAKVEAMTLDLAVLRSVQHFAEAFKAKNVSLHVLVCNAGTFALPWGLTKDGLETTFQVNHLGHFYLVQLLQDVLCRSSPARVIVVSSESHRFTDINDSSGKLDLSRLSPPRSDYWAMLAYNRSKLCNILFSNELHRRLSPRGVTSNAVHPGNMMYSAIHRNSWVYKLLFTLARPFTKSMQQGAATTVYCAVAPELEGLGGMYFNNCCRCLPSEEAQSEETARALWELSERLIQDRLGSPSS
B5 was tested, and the binding [8] was “binds”.

B6: WWOXsdr(mito) (the mitochondria-targeting region in the SDR domain of murine WWOX), Sos-tagged bait (domain or fragment, UniProt Q91WL8 209-273)
chain: CNAGTFALPWGLTKDGLETTFQVNHLGHFYLVQLLQDVLCRSSPARVIVVSSESHRFTDINDSSG
With B6 the binding [5] was “no binding”.

B7: murine Hyal-2, membrane-anchored target (pMyr) (protein, UniProt O35632 1-473)
chain: MRAGLGPIITLALVLEVAWAGELKPTAPPIFTGRPFVVAWNVPTQECAPRHKVPLDLRAFDVKATPNEGFFNQNITTFYYDRLGLYPRFDAAGTSVHGGVPQNGSLCAHLPMLKESVERYIQTQEPGGLAVIDWEEWRPVWVRNWQEKDVYRQSSRQLVASRHPDWPSDRVMKQAQYEFEFAARQFMLNTLRYVKAVRPQHLWGFYLFPDCYNHDYVQNWESYTGRCPDVEVARNDQLAWLWAESTALFPSVYLDETLASSVHSRNFVSFRVREALRVAHTHHANHALPVYVFTRPTYTRGLTGLSQVDLISTIGESAALGSAGVIFWGDSEDASSMETCQYLKNYLTQLLVPYIVNVSWATQYCSWTQCHGHGRCVRRNPSANTFLHLNASSFRLVPGHTPSEPQLRPEGQLSEADLNYLQKHFRCQCYLGWGGEQCQRNYKGAAGNASRAWAGSHLTSLLGLVAVALTWTL
For B7, the binding [5] was “no binding”.
